Assay results as given in article doi:10.1101/2021.09.06.459192.
No constants are given. Whether binding was seen depends on the method and setting. Binding seen in cells or lysates may run through a third protein. A yes stands for co-enrichment or nearness to the bait. Other partners may have been found.

Sequences of proteins named here, by UniProt entry; tags and fusion partners are left off.
UniProt P42945: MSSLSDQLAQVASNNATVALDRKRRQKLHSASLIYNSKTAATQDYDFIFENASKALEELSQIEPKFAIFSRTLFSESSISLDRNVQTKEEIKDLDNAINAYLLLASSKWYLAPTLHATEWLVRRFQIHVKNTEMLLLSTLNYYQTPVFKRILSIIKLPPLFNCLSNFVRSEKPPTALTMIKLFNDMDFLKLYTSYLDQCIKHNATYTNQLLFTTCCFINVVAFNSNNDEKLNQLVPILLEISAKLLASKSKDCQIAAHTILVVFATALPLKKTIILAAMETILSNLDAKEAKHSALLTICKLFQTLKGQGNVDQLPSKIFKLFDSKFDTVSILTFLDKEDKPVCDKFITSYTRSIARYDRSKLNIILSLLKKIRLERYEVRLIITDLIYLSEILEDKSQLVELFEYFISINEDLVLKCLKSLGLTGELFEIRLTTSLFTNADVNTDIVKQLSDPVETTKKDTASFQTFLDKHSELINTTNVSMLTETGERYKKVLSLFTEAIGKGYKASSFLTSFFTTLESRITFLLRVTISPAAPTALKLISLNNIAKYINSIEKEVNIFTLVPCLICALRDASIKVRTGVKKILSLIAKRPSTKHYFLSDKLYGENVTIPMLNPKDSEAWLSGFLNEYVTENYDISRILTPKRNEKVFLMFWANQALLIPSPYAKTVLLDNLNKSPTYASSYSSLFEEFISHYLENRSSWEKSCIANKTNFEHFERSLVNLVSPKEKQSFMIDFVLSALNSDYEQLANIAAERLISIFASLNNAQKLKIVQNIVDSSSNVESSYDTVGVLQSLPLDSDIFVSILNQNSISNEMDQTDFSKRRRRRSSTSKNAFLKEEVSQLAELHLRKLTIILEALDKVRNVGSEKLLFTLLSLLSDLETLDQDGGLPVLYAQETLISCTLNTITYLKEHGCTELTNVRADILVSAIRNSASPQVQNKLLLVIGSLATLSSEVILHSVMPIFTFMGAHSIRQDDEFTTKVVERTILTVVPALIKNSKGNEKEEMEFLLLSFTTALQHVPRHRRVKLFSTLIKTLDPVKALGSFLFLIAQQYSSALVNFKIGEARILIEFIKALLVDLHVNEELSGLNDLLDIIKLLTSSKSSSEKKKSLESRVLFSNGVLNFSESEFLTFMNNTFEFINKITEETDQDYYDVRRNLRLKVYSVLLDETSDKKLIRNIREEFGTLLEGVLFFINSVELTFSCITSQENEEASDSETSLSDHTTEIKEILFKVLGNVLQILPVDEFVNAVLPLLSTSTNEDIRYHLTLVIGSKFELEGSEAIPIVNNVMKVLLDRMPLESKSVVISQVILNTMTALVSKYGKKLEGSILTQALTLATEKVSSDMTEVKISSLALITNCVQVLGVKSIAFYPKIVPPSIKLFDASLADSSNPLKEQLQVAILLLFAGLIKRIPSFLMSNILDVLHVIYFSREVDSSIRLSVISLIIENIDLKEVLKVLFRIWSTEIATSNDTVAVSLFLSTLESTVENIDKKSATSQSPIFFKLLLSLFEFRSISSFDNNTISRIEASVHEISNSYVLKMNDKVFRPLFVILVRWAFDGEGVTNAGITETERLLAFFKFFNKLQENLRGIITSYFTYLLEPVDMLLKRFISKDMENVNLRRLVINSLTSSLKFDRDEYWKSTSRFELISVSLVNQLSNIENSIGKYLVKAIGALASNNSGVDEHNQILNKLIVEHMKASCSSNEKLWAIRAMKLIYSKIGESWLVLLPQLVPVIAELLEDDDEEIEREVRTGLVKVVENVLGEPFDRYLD

B1: Bfr2 (protein, UniProt Q06631 1-534)
chain: MEKSLADQISDIAIKPVNKDFDIEDEENASLFQHNEKNGESDLSDYGNSNTEETKKAHYLEVEKSKLRAEKGLELNDPKYTGVKGSRQALYEEVSENEDEEEEEEEEEEKEEDALSFRTDSEDEEVEIDEEESDADGGETEEAQQKRHALSKLIQQETKQAINKLSQSVQRDASKGYSILQQTKLFDNIIDLRIKLQKAVIAANKLPLTTESWEEAKMDDSEETKRLLKENEKLFNNLFNRLINFRIKFQLGDHITQNEEVAKHKLSKKRSLKELYQETNSLDSELKEYRTAVLNKWSTKVSSASGNAALSSNKFKAINLPADVQVENQLSDMSRLMKRTKLNRRNITPLYFQKDCANGRLPELISPVVKDSVDDNENSDDGLDIPKNYDPRRKDNNAIDITENPYVFDDEDFYRVLLNDLIDKKISNAHNSESAAITITSTNARSNNKLKKNIDTKASKGRKLNYSVQDPIANYEAPITSGYKWSDDQIDEFFAGLLGQRVNFNENEDEEQHARIENDEELEAVKNDDIQIFG
B2: Lcp5 (protein, UniProt P40079 1-357)
chain: MSELNALLKDINGSLTATSESLERLSGIYSNSATDEIPESNQLHEHLFYDAKKPAEKVSLLSLKNGSMLGYINSLLMLIGNRLDDECKDPSAMDARERSIQHRVVLERGVKPLEKKLAYQLDKLTRAYVKMEKEYKDAEKRALEKSTLVNHSGNDDSEDDESSEDEIAYRPNTSGIINTNKKSSAYRVEETAKQENGEENDDNETGVYKPPKITAVLPPQQTHFEDRFDAREHKDRSNKSRMQAMEEYIRESSDQPDWSASIGADIVNHGRGGIKSLRDTEKERRVTSFEEDNFTRLNITNKAEKRKQKQRERNARMNVIGGEDFGIFSSKRKLEDSTSRRGAKKTRSAWDRAQRRL
B3: Enp1 (protein, UniProt P38333 1-483)
chain: MARASSTKARKQRHDPLLKDLDAAQGTLKKINKKKLAQNDAANHDAANEEDGYIDSKASRKILQLAKEQQDEIEGEELAESERNKQFEARFTTMSYDDEDEDEDEDEEAFGEDISDFEPEGDYKEEEEIVEIDEEDAAMFEQYFKKSDDFNSLSGSYNLADKIMASIREKESQVEDMQDDEPLANEQNTSRGNISSGLKSGEGVALPEKVIKAYTTVGSILKTWTHGKLPKLFKVIPSLRNWQDVIYVTNPEEWSPHVVYEATKLFVSNLTAKESQKFINLILLERFRDNIETSEDHSLNYHIYRAVKKSLYKPSAFFKGFLFPLVETGCNVREATIAGSVLAKVSVPALHSSAALSYLLRLPFSPPTTVFIKILLDKKYALPYQTVDDCVYYFMRFRILDDGSNGEDATRVLPVIWHKAFLTFAQRYKNDITQDQRDFLLETVRQRGHKDIGPEIRRELLAGASREFVDPQEANDDLMIDVN
B4: Utp14 (protein, UniProt Q04500 1-899)
chain: MAKKKSKSRSKSSRRVLDALQLAEREINGEFDNSSDNDKRHDARRNGTVVNLLKRSKGDTNSDEDDIDSESFEDEELNSDEALGSDDDYDILNSKFSQTIRDKKENANYQEEEDEGGYTSIDEEDLMPLSQVWDMDEKTAQSNGNDDEDASPQLKLQDTDISSESSSSEESESESEDDEEEEDPFDEISEDEEDIELNTITSKLIDETKSKAPKRLDTYGSGEANEYVLPSANAASGASGKLSLTDMMNVIDDRQVIENANLLKGKSSTYEVPLPQRIQQRHDRKAAYEISRQEVSKWNDIVQQNRRADHLIFPLNKPTEHNHASAFTRTQDVPQTELQEKVDQVLQESNLANPEKDSKFEELSTAKMTPEEMRKRTTEMRLMRELMFREERKARRLKKIKSKTYRKIKKKELMKNRELAAVSSDEDNEDHDIARAKERMTLKHKTNSKWAKDMIKHGMTNDAETREEMEEMLRQGERLKAKMLDRNSDDEEDGRVQTLSDVENEEKENIDSEALKSKLGKTGVMNMAFMKNGEAREREANKETLRQLRAVENGDDIKLFESDEEETNGENIQINKGRRIYTPGSLESNKDMNELNDHTRKENKVDESRSLENRLRAKNSGQSKNARTNAEGAIIVEEESDGEPLQDGQNNQQDEEAKDVNPWLANESDEEHTVKKQSSKVNVIDKDSSKNVKAMNKMEKAELKQKKKKKGKSNDDEDLLLTADDSTRLKIVDPYGGSDDEQGDNVFMFKQQDVIAEAFAGDDVVAEFQEEKKRVIDDEDDKEVDTTLPGWGEWAGAGSKPKNKKRKFIKKVKGVVNKDKRRDKNLQNVIINEKVNKKNLKYQSSAVPFPFENREQYERSLRMPIGQEWTSRASHQELIKPRIMTKPGQVIDPLKAPFK
B5: Rrp12 (protein, UniProt Q12754 1-1228)
chain: MDQDKVAFLLELEDKLAKIRSQVNSKLENQKHIAIILTAVEENIAGQATNDVSKNIVNYIISFMSLLDQAVDPSTHEIKDIQLASSSTYLLDLIFHYSPKVLLRSKFSEILTKIAPCITAEKANAPLIRAAIGCLESLLIAQDAQAWNNTYDLNVTPKRGLQGILELSLDVRPKVRKRALDAVHAVLLNPPVAPTAEHVAAVFVADFCDKQLAGILNDLSNLSNKQLKAQKTKEDINASVMRSLRLITSVVSTGQWPSSQIEPLCDVLLGVTKSSEQYLVSASFECFESMFKTMAETTISSGLAENKYLRVLDTIFALKPSNVDTLLTKSWIAVVIKGMSTYATHQPLKALRKIPGVFHIMCTYLASETPEVYQAASQCLISILSESVKDDLLLYTPSVDEKVFKNVDEIISQIAKTFIDFLSIRYSHCSREILKILVAAFNKFRYRSNPHFLKSLKIVDTWRVNEEQFMDLRNEIELVIGASISAMGPEMILAEAPLNLDNPSSERPGRAWLLPLIRDYTKNANLATFQNELAPYIKSFQSKFDKVPEESIQLRVFQTIVDQIWSTLPRFCELPMDLRESFTDEFASELSSLLYSEVELRTTICHALKVLAESNVSYAEESSSHNVLLLQRFPISEAQKNIEYLSTKSTNLLAVLFNVYTQTTPNARSYILETIDQYLKITSKEDLEKTFNNVCGLLKNSMNEESSGNVNKEKKKPQLTATLLDLIICMITYLPVSSYSALFSMFSLTVNSADALIQKRAYRIITKLSELKSGSTAVAQFISDIENVMVDSASSVQTSAKAARLTAIKTIVELLPLDHLDFIVRTVAEVILSTKDVNEKSRETAFDTLICMGRKMNEPNGIIKLFQIPGYDPTTPDQSSSISEFFKIISAGLIGESQHMVSSSITGYACLVFEFKNELDSGILMDIYDTIELYLTSNSREIVKSAIGFTKVCVLGLPEELMRPKVPELLLKLLRWSHEHTGHFKAKVKHIIERLIRRFGYDYIEANFPEEDRRLLTNIRKMRNRNKRKDEEVTTGVSDVAATKGSRFMSAFDEAVYGSDEENDNGSDQEENVAGGKMKNGAKQFIVESGDNPLDLLDSQTLAHISSTRPKKFNKNQNRARFNDDAFNFDSEGKLVVKGQPKPSTNVDDPLSAVTSGINAYLEAVKSGPVRGQRNKLKFRKNGKDSDEFGDDDDGEKDSRLMRGRVNQGNKIGKHNKKGPKFKSRKKL
B6: Faf1 (protein, UniProt P40546 1-346)
chain: MTLDDDDYIKQMELQRKAFESQFGSLESMGFEDKTKNIRTEVDTRDSSGDEIDNSDHGSDFKDGTIESSNSSDEDSGNETAEENNQDSKPKTQPKVIRFNGPSDVYVPPSKKTQKLLRSGKTLTQINKKLESTEAKEEKEDETLEAENLQNDLELQQFLRESHLLSAFNNGGSGSTNSGVSLTLQSMGGGNDDGIVYQDDQVIGKARSRTLEMRLNRLSRVNGHQDKINKLEKVPMHIRRGMIDKHVKRIKKYEQEAAEGGIVLSKVKKGQFRKIESTYKKDIERRIGGSIKARDKEKATKRERGLKISSVGRSTRNGLIVSKRDIARISGGERSGKFNGKKKSRR
B7: Bms1 (protein, UniProt Q08965 1-1183)
chain: MEQSNKQHRKAKEKNTAKKKLHTQGHNAKAFAVAAPGKMARTMQRSSDVNERKLHVPMVDRTPEDDPPPFIVAVVGPPGTGKTTLIRSLVRRMTKSTLNDIQGPITVVSGKHRRLTFLECPADDLNAMIDIAKIADLVLLLIDGNFGFEMETMEFLNIAQHHGMPRVLGVATHLDLFKSQSTLRASKKRLKHRFWTEVYQGAKLFYLSGVINGRYPDREILNLSRFISVMKFRPLKWRNEHPYMLADRFTDLTHPELIETQGLQIDRKVAIYGYLHGTPLPSAPGTRVHIAGVGDFSVAQIEKLPDPCPTPFYQQKLDDFEREKMKEEAKANGEITTASTTRRRKRLDDKDKLIYAPMSDVGGVLMDKDAVYIDIGKKNEEPSFVPGQERGEGEKLMTGLQSVEQSIAEKFDGVGLQLFSNGTELHEVADHEGMDVESGEESIEDDEGKSKGRTSLRKPRIYGKPVQEEDADIDNLPSDEEPYTNDDDVQDSEPRMVEIDFNNTGEQGAEKLALETDSEFEESEDEFSWERTAANKLKKTESKKRTWNIGKLIYMDNISPEECIRRWRGEDDDSKDESDIEEDVDDDFFRKKDGTVTKEGNKDHAVDLEKFVPYFDTFEKLAKKWKSVDAIKERFLGAGILGNDNKTKSDSNEGGEELYGDFEDLEDGNPSEQAEDNSDKESEDEDENEDTNGDDDNSFTNFDAEEKKDLTMEQEREMNAAKKEKLRAQFEIEEGENFKEDDENNEYDTWYELQKAKISKQLEINNIEYQEMTPEQRQRIEGFKAGSYVRIVFEKVPMEFVKNFNPKFPIVMGGLLPTEIKFGIVKARLRRHRWHKKILKTNDPLVLSLGWRRFQTLPIYTTTDSRTRTRMLKYTPEHTYCNAAFYGPLCSPNTPFCGVQIVANSDTGNGFRIAATGIVEEIDVNIEIVKKLKLVGFPYKIFKNTAFIKDMFSSAMEVARFEGAQIKTVSGIRGEIKRALSKPEGHYRAAFEDKILMSDIVILRSWYPVRVKKFYNPVTSLLLKEKTEWKGLRLTGQIRAAMNLETPSNPDSAYHKIERVERHFNGLKVPKAVQKELPFKSQIHQMKPQKKKTYMAKRAVVLGGDEKKARSFIQKVLTISKAKDSKRKEQKASQRKERLKKLAKMEEEKSQRDKEKKKEYFAQNGKRTTMGGDDESRPRKMRR
B8: Rcl1 (protein, UniProt Q08096 1-367)
chain: MSSSAPKYTTFQGSQNFRLRIVLATLSGKPIKIEKIRSGDLNPGLKDYEVSFLRLIESVTNGSVIEISYTGTTVIYRPGIIVGGASTHICPSSKPVGYFVEPMLYLAPFSKKKFSILFKGITASHNDAGIEAIKWGLMPVMEKFGVRECALHTLKRGSPPLGGGEVHLVVDSLIAQPITMHEIDRPIISSITGVAYSTRVSPSLVNRMIDGAKKVLKNLQCEVNITADVWRGENSGKSPGWGITLVAQSKQKGWSYFAEDIGDAGSIPEELGEKVACQLLEEISKSAAVGRNQLPLAIVYMVIGKEDIGRLRINKEQIDERFIILLRDIKKIFNTEVFLKPVDEADNEDMIATIKGIGFTNTSKKIA
B9: Utp30 (protein, UniProt P36144 1-274)
chain: MVESNDIIKSGLAEKALKALILQCEENPSLKNDKDIHIIINTGKKMGINRDNIPRIIPLTKYKLFKPRDLNILLITKDPSALYRETLTKDEHTSELFKEIISVKNLRRRFKGSKLTQLYKDFDLVVADYRVHHLLPEVLGSRFYHGSKKLPYMIRMSKEVKLKRQQMVEKCDPIYVRAQLRSICKNTSYIPNNDNCLSVRVGYIQKHSIPEILQNIQDTINFLTDKSKRPQGGVIKGGIISIFVKTSNSTSLPIYQFSEARENQKNEDLSDIKL

The binders below were run against Utp10-TAP (S. cerevisiae) (UniProt P42945) (assay: affinity purification with mass spectrometry).

binding, binds:
B1
B2
B3
B4
B5
B6
B7
B8
B9
